In PMC3466278:
No constants are given. Whether binding was seen depends on the method and setting. Binding seen in cells or lysates may run through a third protein. Some entries that bind do so weakly or less than the wild type. Tags and fused reporters may be left off the sequences shown.

Biological target: T1, rat AT2 receptor tagged C-terminally with GFP (rat) (UniProt P35351)
T1 sequence: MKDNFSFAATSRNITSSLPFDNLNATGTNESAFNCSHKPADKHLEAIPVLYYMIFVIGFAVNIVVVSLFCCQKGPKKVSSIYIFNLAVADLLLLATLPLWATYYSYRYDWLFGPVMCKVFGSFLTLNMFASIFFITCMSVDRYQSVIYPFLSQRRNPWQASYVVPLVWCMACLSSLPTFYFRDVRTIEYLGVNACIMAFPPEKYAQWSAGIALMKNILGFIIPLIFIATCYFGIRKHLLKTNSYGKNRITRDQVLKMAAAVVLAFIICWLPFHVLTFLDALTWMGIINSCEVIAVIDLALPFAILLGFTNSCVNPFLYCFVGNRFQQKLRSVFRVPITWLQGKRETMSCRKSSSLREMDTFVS
Experiment: co-IP; AT2-GFP and Myc-AT2 constructs (5 µg each) transiently co-transfected into HEK293 cells; lysed in RIPA buffer two days later; immunoprecipitated with a polyclonal anti-GFP antibody, blot probed with a monoclonal anti-Myc antibody; reducing SDS-PAGE

binding: binds
B1: rat AT2 receptor tagged N-terminally with Myc (receptor, UniProt P35351 1-363)
chain: T1 sequence
